Measured values reported in article PMC11427839.

Biological target: T1, TIR1 fused to nLUC (UniProt Q570C0)
T1 sequence: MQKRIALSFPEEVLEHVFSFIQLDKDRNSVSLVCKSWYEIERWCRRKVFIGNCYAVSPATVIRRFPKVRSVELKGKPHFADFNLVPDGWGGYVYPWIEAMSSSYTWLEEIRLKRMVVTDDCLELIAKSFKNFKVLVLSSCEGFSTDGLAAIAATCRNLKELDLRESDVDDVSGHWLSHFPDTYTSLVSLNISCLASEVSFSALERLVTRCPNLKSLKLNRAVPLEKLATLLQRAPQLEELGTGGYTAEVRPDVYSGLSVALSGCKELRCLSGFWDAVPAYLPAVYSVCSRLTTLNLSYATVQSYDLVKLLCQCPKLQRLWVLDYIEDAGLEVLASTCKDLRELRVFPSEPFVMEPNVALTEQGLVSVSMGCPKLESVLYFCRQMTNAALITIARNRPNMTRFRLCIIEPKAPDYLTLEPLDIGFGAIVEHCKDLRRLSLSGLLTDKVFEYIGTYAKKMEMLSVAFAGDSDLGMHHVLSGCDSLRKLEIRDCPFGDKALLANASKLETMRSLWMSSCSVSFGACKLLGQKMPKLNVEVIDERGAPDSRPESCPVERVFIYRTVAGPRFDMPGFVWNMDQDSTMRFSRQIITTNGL
Assay: split reporter; split-luciferase complementation in tobacco; IAA13-cLUC (JW771) and TIR1-nLUC (JW772) vectors transferred together; imaged with NightSHADE EVO LB 985N after 60 h of growth in darkness

Row | binding | Substance
1 | binds | BnaA03.IAA13 (wild type, from ZS11) fused to cLUC (Brassica napus (rapeseed))
2 | no binding | BnaA03.iaa13 (mutated protein of the EMS mutant T16: G79E, E160K) fused to cLUC (Brassica napus (rapeseed))

No constants are given. Whether binding was seen depends on the method and setting. In cells and extracts the contact can be indirect. Binding can be weak; no strength is given. Tags and fused reporters may be left off the sequences shown.
